No constants are given. Whether binding was seen depends on the method and setting. In cells and extracts the contact can be indirect. Some entries that bind do so weakly or less than the wild type.

Amino acid sequences for entries named in this document (tags omitted).
UniProt P00441: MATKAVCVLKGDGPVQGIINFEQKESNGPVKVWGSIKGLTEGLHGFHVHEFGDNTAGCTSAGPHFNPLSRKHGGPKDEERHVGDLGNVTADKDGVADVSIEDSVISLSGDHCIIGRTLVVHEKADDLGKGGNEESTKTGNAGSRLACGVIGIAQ
UniProt P04406: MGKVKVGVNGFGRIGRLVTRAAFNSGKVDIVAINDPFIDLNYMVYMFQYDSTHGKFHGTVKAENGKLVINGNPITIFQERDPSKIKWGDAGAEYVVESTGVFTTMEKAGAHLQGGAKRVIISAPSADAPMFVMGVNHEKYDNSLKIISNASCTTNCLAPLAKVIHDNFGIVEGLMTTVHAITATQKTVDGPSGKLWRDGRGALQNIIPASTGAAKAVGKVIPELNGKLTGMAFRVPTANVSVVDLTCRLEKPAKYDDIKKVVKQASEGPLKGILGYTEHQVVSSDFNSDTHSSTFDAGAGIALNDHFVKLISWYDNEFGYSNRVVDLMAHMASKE

What all share (test): proximity ligation
Test [1] concerns the target Cu/Zn superoxide dismutase (SOD1) (human (endogenous in HeLa)) (UniProt P00441).
In test [2] the target is T1, catalase (CAT) (human (endogenous in HeLa)) (UniProt P04040).
T1 sequence: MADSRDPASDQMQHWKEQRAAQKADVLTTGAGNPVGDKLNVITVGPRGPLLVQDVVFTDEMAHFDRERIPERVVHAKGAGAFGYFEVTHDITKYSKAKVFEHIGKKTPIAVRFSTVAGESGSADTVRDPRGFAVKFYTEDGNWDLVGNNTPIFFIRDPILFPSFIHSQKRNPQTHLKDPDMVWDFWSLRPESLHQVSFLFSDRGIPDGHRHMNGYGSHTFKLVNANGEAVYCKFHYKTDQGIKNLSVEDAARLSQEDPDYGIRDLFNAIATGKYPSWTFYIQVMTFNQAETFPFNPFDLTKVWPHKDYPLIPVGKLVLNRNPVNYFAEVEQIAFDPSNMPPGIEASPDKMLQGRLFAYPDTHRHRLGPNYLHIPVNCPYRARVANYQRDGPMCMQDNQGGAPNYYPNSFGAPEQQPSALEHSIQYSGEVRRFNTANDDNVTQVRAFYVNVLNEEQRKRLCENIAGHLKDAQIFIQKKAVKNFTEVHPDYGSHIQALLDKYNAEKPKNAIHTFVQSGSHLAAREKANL

Test [3] concerns the target T2, peroxiredoxin 2 (PRDX2) (human (endogenous in HeLa)) (UniProt P32119).
T2 sequence: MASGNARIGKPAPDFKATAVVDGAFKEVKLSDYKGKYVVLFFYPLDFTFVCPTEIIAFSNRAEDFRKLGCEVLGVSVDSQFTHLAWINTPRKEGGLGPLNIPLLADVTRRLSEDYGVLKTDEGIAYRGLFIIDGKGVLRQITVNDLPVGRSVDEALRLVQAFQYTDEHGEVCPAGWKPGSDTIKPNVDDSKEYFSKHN

The target of test [4] is T3, catalase (CAT) (human (endogenous in HeLa)), P04040.
T3 chain: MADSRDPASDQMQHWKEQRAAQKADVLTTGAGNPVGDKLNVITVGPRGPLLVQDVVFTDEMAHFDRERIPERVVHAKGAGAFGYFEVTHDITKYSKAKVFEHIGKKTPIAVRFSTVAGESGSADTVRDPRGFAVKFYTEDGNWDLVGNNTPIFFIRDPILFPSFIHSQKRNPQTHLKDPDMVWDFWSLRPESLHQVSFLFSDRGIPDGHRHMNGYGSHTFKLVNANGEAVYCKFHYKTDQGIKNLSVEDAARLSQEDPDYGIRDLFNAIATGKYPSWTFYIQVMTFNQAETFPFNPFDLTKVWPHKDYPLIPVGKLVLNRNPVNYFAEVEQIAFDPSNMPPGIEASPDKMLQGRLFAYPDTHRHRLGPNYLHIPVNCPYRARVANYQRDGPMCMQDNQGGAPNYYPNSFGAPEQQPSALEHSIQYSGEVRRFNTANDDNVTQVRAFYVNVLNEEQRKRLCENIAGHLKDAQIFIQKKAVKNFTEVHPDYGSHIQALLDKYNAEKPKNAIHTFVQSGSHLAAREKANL
As to conditions: remark: other sources report otherwise.

Test [5] addresses glyceraldehyde-3-phosphate dehydrogenase (GAPDH) (human (endogenous in HeLa)) (UniProt P04406).
In test [6] the target is T4, PRDX1 (human (endogenous in HeLa)) (UniProt Q06830).
T4 sequence: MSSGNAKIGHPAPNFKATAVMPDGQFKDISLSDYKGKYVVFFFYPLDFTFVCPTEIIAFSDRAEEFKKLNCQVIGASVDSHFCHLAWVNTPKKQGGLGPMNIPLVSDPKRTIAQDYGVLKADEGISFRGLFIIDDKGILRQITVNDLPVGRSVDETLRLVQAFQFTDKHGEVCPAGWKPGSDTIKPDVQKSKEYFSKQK

B1: PRIM2 (a DNA primase subunit) (protein, UniProt P49643 1-509)
chain: MEFSGRKWRKLRLAGDQRNASYPHCLQFYLQPPSENISLIEFENLAIDRVKLLKSVENLGVSYVKGTEQYQSKLESELRKLKFSYRENLEDEYEPRRRDHISHFILRLAYCQSEELRRWFIQQEMDLLRFRFSILPKDKIQDFLKDSQLQFEAISDEEKTLREQEIVASSPSLSGLKLGFESIYKIPFADALDLFRGRKVYLEDGFAYVPLKDIVAIILNEFRAKLSKALALTARSLPAVQSDERLQPLLNHLSHSYTGQDYSTQGNVGKISLDQIDLLSTKSFPPCMRQLHKALRENHHLRHGGRMQYGLFLKGIGLTLEQALQFWKQEFIKGKMDPDKFDKGYSYNIRHSFGKEGKRTDYTPFSCLKIILSNPPSQGDYHGCPFRHSDPELLKQKLQSYKISPGGISQILDLVKGTHYQVACQKYFEMIHNVDDCGFSLNHPNQFFCESQRILNGGKDIKKEPIQPETPQPKPSVQKTKDASSALASLNSSLEMDMEGLEDYFSEDS
Consider B1, for which the binding entry in test [1], in test [2] and in test [3] was “binds” in each case.

B2: PRDX1, Q06830 1-199 (protein)
chain: MSSGNAKIGHPAPNFKATAVMPDGQFKDISLSDYKGKYVVFFFYPLDFTFVCPTEIIAFSDRAEEFKKLNCQVIGASVDSHFCHLAWVNTPKKQGGLGPMNIPLVSDPKRTIAQDYGVLKADEGISFRGLFIIDDKGILRQITVNDLPVGRSVDETLRLVQAFQFTDKHGEVCPAGWKPGSDTIKPDVQKSKEYFSKQK
On to B2, for which, in test [4], the binding entry is “binds”.

B3: TXN (protein, UniProt P10599 1-105)
chain: MVKQIESKTAFQEALDAAGDKLVVVDFSATWCGPCKMIKPFFHSLSEKYSNVIFLEVDVDDCQDVASECEVKCMPTFQFFKKGQKVGEFSGANKEKLEATINELV
On to B3, for which the binding entry in test [2] and in test [5] was “binds” each time.

B4: PRDX6 (protein, UniProt P30041 1-224)
chain: MPGGLLLGDVAPNFEANTTVGRIRFHDFLGDSWGILFSHPRDFTPVCTTELGRAAKLAPEFAKRNVKLIALSIDSVEDHLAWSKDINAYNCEEPTEKLPFPIIDDRNRELAILLGMLDPAEKDEKGMPVTARVVFVFGPDKKLKLSILYPATTGRNFDEILRVVISLQLTAEKRVATPVDWKDGDSVMVLPTIPEEEAKKLFPKGVFTKELPSGKKYLRYTPQP
B4: the binding entry in test [6] is recorded as “binds”.

B5: catalase (CAT) (protein, UniProt P04040 1-527)
chain: MADSRDPASDQMQHWKEQRAAQKADVLTTGAGNPVGDKLNVITVGPRGPLLVQDVVFTDEMAHFDRERIPERVVHAKGAGAFGYFEVTHDITKYSKAKVFEHIGKKTPIAVRFSTVAGESGSADTVRDPRGFAVKFYTEDGNWDLVGNNTPIFFIRDPILFPSFIHSQKRNPQTHLKDPDMVWDFWSLRPESLHQVSFLFSDRGIPDGHRHMNGYGSHTFKLVNANGEAVYCKFHYKTDQGIKNLSVEDAARLSQEDPDYGIRDLFNAIATGKYPSWTFYIQVMTFNQAETFPFNPFDLTKVWPHKDYPLIPVGKLVLNRNPVNYFAEVEQIAFDPSNMPPGIEASPDKMLQGRLFAYPDTHRHRLGPNYLHIPVNCPYRARVANYQRDGPMCMQDNQGGAPNYYPNSFGAPEQQPSALEHSIQYSGEVRRFNTANDDNVTQVRAFYVNVLNEEQRKRLCENIAGHLKDAQIFIQKKAVKNFTEVHPDYGSHIQALLDKYNAEKPKNAIHTFVQSGSHLAAREKANL
Take B5: the binding entry in test [1] is “binds”.

These data come from article doi:10.1101/2025.08.11.669663.
